Measurements from the supplement of paper PMC10060354, “Discovery of a small molecule ligand of FRS2 that inhibits invasion and tumor growth” (Cellular Oncology, 2022).
Where “and” joins values, the source holds several entries; their conditions need not be identical. Equal entries are not always repeated. Many values rest on one well or one pass, so single values are uncertain.

The chains behind the UniProt entries cited, without tags or fusion partners. Where a name states a change or a piece, a line headed by the entry shows the natural chain unless it says otherwise.
UniProt Q5TBB1: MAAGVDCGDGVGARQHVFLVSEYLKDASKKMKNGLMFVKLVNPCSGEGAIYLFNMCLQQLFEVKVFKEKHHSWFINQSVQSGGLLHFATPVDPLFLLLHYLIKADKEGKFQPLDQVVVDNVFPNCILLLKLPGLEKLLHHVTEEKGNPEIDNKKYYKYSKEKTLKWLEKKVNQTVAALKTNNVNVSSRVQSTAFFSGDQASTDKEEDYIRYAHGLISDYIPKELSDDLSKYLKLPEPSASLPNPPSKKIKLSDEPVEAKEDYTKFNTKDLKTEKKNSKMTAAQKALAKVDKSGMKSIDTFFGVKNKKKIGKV
UniProt Q8NB49: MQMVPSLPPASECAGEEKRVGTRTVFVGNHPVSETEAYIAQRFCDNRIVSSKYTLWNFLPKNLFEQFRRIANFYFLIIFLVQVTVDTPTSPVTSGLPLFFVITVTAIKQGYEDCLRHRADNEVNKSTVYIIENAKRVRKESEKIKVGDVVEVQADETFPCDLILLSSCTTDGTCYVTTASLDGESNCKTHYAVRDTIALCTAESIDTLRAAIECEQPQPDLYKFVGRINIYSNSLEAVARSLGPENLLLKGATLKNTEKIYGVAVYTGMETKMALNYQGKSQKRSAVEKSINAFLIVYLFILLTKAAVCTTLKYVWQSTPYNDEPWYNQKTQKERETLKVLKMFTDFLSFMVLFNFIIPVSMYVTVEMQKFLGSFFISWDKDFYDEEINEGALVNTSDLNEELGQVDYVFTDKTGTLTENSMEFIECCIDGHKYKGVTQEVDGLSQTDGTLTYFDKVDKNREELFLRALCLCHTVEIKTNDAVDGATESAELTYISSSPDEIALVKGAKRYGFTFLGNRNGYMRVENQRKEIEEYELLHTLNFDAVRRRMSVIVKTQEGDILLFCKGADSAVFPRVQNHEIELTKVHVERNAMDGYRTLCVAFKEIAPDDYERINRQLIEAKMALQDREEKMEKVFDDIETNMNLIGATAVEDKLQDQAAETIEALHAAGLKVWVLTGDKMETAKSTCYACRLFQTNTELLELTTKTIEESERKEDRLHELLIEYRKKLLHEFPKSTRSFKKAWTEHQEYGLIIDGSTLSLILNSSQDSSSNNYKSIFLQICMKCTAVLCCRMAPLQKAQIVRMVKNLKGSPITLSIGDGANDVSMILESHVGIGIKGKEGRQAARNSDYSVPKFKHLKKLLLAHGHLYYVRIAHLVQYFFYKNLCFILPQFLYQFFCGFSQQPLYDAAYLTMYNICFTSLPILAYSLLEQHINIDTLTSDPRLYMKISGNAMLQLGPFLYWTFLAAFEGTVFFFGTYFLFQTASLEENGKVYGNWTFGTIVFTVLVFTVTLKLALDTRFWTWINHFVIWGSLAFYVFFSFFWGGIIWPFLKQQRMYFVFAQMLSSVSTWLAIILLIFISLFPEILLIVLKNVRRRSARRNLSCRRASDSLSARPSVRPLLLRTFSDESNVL
UniProt Q96LR5: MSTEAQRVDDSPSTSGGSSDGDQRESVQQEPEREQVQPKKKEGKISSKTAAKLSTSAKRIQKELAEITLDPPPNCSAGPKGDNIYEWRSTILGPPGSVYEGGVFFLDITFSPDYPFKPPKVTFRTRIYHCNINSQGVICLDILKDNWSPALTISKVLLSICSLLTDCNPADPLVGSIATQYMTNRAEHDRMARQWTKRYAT
UniProt P33947: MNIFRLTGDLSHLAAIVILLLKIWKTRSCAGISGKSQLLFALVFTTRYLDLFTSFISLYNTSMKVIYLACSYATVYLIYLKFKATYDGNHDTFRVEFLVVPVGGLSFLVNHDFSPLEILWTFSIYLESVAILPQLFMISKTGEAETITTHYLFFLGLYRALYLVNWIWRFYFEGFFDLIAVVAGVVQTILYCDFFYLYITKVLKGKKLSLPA
UniProt P07355, whole entry: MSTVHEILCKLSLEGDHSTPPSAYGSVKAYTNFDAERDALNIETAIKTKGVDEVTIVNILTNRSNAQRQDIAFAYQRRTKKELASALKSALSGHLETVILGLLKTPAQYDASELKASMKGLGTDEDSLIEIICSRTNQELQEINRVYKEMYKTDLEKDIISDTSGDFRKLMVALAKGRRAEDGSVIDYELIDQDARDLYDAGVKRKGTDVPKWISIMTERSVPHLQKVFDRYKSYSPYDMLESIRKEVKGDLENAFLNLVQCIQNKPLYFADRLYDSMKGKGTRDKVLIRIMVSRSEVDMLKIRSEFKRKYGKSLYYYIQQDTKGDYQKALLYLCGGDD
UniProt Q15113: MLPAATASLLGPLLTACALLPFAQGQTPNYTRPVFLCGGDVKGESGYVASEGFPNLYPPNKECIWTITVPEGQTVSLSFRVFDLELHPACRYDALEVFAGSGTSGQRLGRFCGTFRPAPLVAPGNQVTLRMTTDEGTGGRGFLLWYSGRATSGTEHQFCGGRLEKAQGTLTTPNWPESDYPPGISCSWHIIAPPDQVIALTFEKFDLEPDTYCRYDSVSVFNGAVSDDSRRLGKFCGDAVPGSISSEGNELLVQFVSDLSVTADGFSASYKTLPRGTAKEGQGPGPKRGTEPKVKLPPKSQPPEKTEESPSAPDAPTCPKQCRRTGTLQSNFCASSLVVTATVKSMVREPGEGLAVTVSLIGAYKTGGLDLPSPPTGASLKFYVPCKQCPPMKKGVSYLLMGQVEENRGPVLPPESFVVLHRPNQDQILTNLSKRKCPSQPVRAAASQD
A0A024RBG1, A0A024RBG1, UniProt A0A024RBG1, whole entry: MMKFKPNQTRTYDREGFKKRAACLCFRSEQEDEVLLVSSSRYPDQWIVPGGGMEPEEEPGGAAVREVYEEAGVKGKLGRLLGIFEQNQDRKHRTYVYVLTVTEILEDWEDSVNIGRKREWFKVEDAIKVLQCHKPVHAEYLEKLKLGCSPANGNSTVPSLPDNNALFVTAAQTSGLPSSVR
UniProt Q2VPK5: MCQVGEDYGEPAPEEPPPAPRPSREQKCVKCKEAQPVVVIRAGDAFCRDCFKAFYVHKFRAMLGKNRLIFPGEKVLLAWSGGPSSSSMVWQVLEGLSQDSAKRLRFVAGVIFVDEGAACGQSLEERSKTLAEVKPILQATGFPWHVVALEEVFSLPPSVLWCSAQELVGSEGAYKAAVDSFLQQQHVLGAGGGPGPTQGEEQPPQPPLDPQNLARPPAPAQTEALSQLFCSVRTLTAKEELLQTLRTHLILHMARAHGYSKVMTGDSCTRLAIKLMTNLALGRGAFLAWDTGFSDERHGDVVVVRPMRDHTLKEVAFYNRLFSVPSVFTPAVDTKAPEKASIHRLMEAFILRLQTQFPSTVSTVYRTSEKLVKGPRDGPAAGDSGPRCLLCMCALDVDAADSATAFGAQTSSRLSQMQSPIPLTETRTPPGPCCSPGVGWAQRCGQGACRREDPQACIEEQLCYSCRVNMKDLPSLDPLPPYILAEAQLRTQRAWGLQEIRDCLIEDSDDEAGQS
UniProt Q16831: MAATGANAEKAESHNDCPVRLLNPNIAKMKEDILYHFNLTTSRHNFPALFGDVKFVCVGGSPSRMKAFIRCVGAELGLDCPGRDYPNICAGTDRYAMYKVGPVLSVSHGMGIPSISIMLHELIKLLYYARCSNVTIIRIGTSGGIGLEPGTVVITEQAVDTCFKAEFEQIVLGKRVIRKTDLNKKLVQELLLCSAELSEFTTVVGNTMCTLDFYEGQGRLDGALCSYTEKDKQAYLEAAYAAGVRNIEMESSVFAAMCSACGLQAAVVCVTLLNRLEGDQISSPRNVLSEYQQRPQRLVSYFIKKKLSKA
UniProt Q02539, whole entry: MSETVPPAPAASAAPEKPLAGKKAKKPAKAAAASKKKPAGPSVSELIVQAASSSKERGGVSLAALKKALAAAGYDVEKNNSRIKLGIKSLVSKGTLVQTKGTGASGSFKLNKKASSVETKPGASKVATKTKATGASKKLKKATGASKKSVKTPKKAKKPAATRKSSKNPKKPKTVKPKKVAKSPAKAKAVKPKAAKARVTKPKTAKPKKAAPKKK
UniProt Q7Z7A4: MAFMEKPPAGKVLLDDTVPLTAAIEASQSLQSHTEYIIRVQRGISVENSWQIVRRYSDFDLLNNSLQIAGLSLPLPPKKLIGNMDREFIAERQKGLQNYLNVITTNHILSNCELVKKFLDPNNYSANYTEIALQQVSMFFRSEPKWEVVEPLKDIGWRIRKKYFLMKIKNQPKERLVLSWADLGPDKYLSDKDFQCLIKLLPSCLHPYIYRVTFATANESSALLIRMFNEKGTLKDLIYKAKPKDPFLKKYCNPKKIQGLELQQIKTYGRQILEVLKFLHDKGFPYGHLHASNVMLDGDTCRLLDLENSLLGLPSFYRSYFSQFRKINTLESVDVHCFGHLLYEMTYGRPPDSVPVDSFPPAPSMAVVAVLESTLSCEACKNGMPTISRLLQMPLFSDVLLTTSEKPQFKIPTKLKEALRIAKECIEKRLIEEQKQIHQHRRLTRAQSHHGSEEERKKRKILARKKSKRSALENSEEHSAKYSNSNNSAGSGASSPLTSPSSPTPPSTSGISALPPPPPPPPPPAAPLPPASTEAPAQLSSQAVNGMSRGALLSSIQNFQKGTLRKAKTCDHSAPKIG
UniProt P12429: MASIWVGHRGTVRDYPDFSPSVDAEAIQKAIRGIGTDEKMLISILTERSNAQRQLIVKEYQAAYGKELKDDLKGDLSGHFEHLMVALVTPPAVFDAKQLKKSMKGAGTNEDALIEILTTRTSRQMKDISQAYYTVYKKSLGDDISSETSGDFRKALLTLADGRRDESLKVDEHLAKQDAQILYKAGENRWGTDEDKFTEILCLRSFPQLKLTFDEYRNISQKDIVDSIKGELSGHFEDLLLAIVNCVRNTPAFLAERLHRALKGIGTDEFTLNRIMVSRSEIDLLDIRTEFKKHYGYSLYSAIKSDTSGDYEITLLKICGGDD
UniProt O00116: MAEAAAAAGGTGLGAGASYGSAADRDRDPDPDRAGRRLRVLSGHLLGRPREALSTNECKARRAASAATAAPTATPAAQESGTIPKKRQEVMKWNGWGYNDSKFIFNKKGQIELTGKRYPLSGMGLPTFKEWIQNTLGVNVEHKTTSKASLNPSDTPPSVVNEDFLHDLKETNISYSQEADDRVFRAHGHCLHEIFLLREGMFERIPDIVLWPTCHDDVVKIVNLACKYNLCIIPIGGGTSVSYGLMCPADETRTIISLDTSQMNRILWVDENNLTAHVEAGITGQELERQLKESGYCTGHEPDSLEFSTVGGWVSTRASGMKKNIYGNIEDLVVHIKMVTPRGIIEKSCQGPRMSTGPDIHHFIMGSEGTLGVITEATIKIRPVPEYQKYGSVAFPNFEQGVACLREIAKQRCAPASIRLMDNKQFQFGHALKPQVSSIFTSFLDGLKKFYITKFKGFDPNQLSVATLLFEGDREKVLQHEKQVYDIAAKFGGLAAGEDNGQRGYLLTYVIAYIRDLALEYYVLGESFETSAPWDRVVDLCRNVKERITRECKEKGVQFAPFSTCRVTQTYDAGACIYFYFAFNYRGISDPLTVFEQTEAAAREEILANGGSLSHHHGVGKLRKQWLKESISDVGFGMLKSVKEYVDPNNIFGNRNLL
UniProt Q99805: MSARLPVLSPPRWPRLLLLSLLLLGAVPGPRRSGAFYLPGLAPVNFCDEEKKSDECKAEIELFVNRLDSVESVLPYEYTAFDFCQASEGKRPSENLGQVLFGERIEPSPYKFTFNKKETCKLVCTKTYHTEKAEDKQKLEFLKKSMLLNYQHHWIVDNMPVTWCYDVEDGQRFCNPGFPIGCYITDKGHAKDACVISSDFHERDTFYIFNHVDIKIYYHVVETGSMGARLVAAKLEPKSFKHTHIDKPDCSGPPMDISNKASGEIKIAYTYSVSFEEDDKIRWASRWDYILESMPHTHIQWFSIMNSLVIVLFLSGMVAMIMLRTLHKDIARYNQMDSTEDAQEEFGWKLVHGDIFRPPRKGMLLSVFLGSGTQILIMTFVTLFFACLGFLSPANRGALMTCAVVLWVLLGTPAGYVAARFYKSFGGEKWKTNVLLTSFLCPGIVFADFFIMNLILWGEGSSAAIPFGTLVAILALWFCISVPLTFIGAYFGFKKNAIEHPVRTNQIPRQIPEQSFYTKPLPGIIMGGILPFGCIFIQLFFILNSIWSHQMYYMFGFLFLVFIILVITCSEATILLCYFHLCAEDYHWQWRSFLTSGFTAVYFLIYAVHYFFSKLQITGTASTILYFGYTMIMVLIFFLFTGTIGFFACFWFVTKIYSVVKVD
UniProt O75964: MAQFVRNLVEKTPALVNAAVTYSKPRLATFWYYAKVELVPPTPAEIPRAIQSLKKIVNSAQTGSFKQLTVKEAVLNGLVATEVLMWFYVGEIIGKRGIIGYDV
UniProt Q8NHP1: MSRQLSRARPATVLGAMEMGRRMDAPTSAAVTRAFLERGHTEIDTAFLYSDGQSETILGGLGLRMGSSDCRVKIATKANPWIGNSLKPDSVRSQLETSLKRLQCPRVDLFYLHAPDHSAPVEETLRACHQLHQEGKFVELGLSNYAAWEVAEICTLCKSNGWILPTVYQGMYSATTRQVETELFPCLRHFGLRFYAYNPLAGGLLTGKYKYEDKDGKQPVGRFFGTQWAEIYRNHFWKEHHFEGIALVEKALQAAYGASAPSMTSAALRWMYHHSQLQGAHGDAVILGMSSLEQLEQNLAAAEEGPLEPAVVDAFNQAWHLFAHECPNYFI

Compound: [O-][N+](C(C1=C(C(O)=C2)NC(C(C=C3)=CC=C3Cl)C4C1C=CC4)=C2Cl)=O
Experiment: melting temperature shift (compound 7 minus DMSO); higher = compound stabilises the protein
Conditions: 10 µM
Method: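 Thermal proteome profiling (TMT mass spectrometry) in intact DAOY medulloblastoma cells or DAOY lysates treated with 10 µM compound 7 or DMSO, heated at 10 temperatures from 40.5 to 73.8 °C for 3 min. Melting curves were fitted with the Bioconductor TPP package, and the melting point difference between compound and vehicle is reported per protein (single curve per condition).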

[1] = system: DAOY cell lysate, treatment time: 20 min, 4 °C
[2] = system: intact DAOY cells, treatment time: 90 min, 37 °C

Target | melting temperature shift [1] | melting temperature shift [2] [°C]
KIF3B (UniProt O15066) | -0.594 °C | -0.649
C1QBP (UniProt Q07021) | 1.42 °C | -0.21
MCM5 (UniProt P33992) | -0.726 °C | -1.08
UniProt P20929 | – | 0.488
MRPS18B (UniProt Q9Y676) | 0.717 °C | -0.967
GNL3L (UniProt Q9NVN8) | -0.553 °C | –
HMGB2 (UniProt P26583) | 0.818 °C | –
ZWILCH (UniProt Q9H900) | -0.511 °C | 0.332
CHAMP1 (UniProt Q96JM3) | 1.19 °C | -0.283
STAT1 (UniProt P42224) | -0.69 °C | -0.296
RNASEH2B (UniProt Q5TBB1) | -1.43 °C | -0.434
AAK1 (UniProt Q2M2I8) | -0.176 °C | -0.684
UniProt Q2VIQ3 | – | 0.765
FHOD1 (UniProt Q9Y613) | -0.797 °C | -0.355
NAPRT (UniProt Q6XQN6) | -1.03 °C | -2.77
GPX1 (UniProt P07203) | 0.156 °C | -1.93
ARHGAP17 (UniProt Q68EM7) | -0.651 °C | 0.748
MCM4 (UniProt P33991) | -0.164 °C | -1.11
PPA1 (UniProt Q15181) | – | -0.245
CAMK2B (UniProt Q13554) | – | -0.746
ATP11C (UniProt Q8NB49) | 1.6 °C | 2.34
UniProt Q6P9A1 | – | -1.17
HAUS2 (UniProt Q9NVX0) | -0.121 °C | 1.14

Target | melting temperature shift [1] | melting temperature shift [2] [°C]
EXOSC3 (UniProt Q9NQT5) | 0.103 °C | 0.572
FOXO3 (UniProt O43524) | 1.14 °C | –
UBE2E2 (UniProt Q96LR5) | -1.13 °C | -1.13
UniProt Q9H0C2 | – | -0.259
ZMPSTE24 (UniProt O75844) | 1.42 °C | 0.694
UniProt P33947 | – | -1.59
SYNCRIP (UniProt O60506) | 0.269 °C | -0.0347
DCAF7 (UniProt P61962) | -0.517 °C | 0.238
ANXA2 (UniProt P07355) | 0.228 °C | 0.336
CBLB (UniProt Q13191) | – | 0.379
TNPO1 (UniProt Q92973) | -0.567 °C | -0.601
SEC22B (UniProt O75396) | 1.51 °C | -0.427
FEM1B (UniProt Q9UK73) | -3.19 °C | 1.8
PSMG1 (UniProt O95456) | -3.67 °C | 0.746
UniProt Q15113 | 0.933 °C | 0.339
UniProt Q9UPW0 | – | 0.0829
A0A024RBG1, A0A024RBG1 | – | -0.346
FAM96B (UniProt Q9Y3D0) | -0.0478 °C | -0.126
HNRNPUL1 (UniProt Q9BUJ2) | 0.103 °C | -2.25
PGD (UniProt P52209) | -0.457 °C | -0.843
TMF1 (UniProt P82094) | 3.3 °C | –
UniProt Q9H3G5 | 0.544 °C | -0.558
CTU2 (UniProt Q2VPK5) | -0.683 °C | -0.893

Single records (already shown). Order of values: melting temperature shift [1] | melting temperature shift [2] [°C]
SYNCRIP (UniProt O60506) as listed: 0.269 °C | -0.0347
A0A024RBG1, A0A024RBG1 as listed: – | -0.346
ANXA2 (UniProt P07355) as listed: 0.228 °C | 0.336
UniProt Q9UPW0 as listed: – | 0.0829

(next part)

Target | melting temperature shift [1] | melting temperature shift [2] [°C]
UniProt Q96EN9 | -2.17 °C | –
PDLIM5 (UniProt Q96HC4) | -0.664 °C | -0.0418
UPP1 (UniProt Q16831) | -1.02 °C | -0.334
PLEKHA2 (UniProt Q9HB19) | -0.542 °C | –
UniProt Q02539 | – | -0.522
TBC1D2B (UniProt Q9UPU7) | – | -1.39
POLR1A (UniProt O95602) | 0.33 °C | 0.421
RABGEF1 (UniProt Q9UJ41) | -0.846 °C | 1.08
RPL23A (UniProt P62750) | 0.213 °C | -0.607
PDXDC1 (UniProt Q6P996) | -0.588 °C | -0.286
UniProt Q7Z7A4 | -1.08 °C | –
SLC39A10 (UniProt Q9ULF5) | 1.21 °C | –
GLTSCR2 (UniProt Q9NZM5) | -0.275 °C | -0.481
FKBP9 (UniProt O95302) | 1.14 °C | 1.25
YWHAE (UniProt P62258) | -1.07 °C | -0.0113
STRN4 (UniProt Q9NRL3) | -1.07 °C | 0.189
ANXA3 (UniProt P12429) | -0.147 °C | 0.0125
UBE2L3 (UniProt P68036) | -1.31 °C | -0.548
FAM111B (UniProt Q6SJ93) | -1.38 °C | -1.9
FBXO3 (UniProt Q9UK99) | – | -0.536
ANXA7 (UniProt P20073) | -0.547 °C | 0.293
WWP2 (UniProt O00308) | 3.66 °C | –
UniProt Q9UNA1 | 1.91 °C | –

Target | melting temperature shift [1] | melting temperature shift [2] [°C]
FAHD1 (UniProt Q6P587) | -1.39 °C | –
SMG5 (UniProt Q9UPR3) | -1.12 °C | –
DYNLL1 (UniProt P63167) | 0.99 °C | 0.948
B3GAT3 (UniProt O94766) | 1.06 °C | 0.184
PPP4R3B (UniProt Q5MIZ7) | -0.615 °C | -0.623
TM7SF3 (UniProt Q9NS93) | -3.23 °C | –
ACSL4 (UniProt O60488) | -0.268 °C | -0.616
GMEB1 (UniProt Q9Y692) | -1.44 °C | –
AGPS (UniProt O00116) | 1.24 °C | 0.767
UCHL3 (UniProt P15374) | -0.631 °C | 1.17
TRIM26 (UniProt Q12899) | -0.67 °C | -0.185
STT3A (UniProt P46977) | 0.897 °C | -0.931
NUMB (UniProt P49757) | -0.00145 °C | 0.104
TM9SF2 (UniProt Q99805) | -0.151 °C | 0.0375
ATP5L (UniProt O75964) | 0.177 °C | -2.93
UniProt P24468 | -1.2 °C | -1.66
Q8IXS6 (UniProt Q9Y2D5) | 0.73 °C and -3.7 °C | –
SUMF2 (UniProt Q8NBJ7) | 1.15 °C | 1.11
CHD8 (UniProt Q9HCK8) | -1.32 °C | 2.99
UniProt Q8NHP1 | – | -0.0443
METTL16 (UniProt Q86W50) | -1.42 °C | -0.437
